Among the data in PMC8830128 are binding values, retold here.

By UniProt entry, the sequences of proteins in these tests, tags left out. Residues count along the entry.
UniProt P35968, residues 20-1356: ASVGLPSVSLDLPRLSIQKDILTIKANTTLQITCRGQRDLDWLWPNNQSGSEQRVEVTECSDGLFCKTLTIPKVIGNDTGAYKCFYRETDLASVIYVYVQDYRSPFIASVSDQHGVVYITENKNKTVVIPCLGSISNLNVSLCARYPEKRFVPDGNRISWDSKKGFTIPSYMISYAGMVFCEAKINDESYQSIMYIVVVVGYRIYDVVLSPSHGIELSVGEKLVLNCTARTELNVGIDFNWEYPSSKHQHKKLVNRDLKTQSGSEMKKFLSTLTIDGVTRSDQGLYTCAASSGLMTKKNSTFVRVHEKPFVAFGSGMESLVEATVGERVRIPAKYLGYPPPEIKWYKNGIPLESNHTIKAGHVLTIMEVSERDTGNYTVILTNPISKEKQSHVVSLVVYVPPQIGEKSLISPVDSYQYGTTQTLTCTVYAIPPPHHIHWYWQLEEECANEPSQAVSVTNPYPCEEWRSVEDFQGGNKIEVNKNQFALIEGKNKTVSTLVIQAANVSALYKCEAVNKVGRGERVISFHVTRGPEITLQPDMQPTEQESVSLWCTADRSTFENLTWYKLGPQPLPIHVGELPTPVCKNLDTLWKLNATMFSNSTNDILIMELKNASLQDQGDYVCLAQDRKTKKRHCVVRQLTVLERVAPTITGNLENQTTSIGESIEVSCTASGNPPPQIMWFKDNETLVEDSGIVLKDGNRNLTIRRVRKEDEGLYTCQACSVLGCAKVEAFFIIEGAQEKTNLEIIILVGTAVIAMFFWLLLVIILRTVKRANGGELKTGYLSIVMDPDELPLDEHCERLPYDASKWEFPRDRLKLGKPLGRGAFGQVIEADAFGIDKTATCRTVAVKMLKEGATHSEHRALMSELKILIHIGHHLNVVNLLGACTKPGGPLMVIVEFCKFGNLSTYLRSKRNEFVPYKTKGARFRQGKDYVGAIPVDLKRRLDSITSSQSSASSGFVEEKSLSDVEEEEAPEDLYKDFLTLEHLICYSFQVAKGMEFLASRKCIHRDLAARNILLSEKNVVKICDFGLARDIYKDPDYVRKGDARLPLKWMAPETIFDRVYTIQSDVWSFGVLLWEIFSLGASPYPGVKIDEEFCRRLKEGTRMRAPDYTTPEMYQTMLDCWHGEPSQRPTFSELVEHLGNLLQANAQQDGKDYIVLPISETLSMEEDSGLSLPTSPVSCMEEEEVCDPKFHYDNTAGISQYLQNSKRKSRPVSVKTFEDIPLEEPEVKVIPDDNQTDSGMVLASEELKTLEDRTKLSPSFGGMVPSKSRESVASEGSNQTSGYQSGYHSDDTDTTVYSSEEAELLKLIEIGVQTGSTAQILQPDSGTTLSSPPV

These are yes or no findings as the source states them, for the method shown. Binding seen in cells or lysates may run through a third protein. Sequences can lack the tags named with a protein.

The test deals with T1, DIX domain containing 1 (DIXDC1), Flag-tagged (UniProt Q155Q3).
T1 sequence: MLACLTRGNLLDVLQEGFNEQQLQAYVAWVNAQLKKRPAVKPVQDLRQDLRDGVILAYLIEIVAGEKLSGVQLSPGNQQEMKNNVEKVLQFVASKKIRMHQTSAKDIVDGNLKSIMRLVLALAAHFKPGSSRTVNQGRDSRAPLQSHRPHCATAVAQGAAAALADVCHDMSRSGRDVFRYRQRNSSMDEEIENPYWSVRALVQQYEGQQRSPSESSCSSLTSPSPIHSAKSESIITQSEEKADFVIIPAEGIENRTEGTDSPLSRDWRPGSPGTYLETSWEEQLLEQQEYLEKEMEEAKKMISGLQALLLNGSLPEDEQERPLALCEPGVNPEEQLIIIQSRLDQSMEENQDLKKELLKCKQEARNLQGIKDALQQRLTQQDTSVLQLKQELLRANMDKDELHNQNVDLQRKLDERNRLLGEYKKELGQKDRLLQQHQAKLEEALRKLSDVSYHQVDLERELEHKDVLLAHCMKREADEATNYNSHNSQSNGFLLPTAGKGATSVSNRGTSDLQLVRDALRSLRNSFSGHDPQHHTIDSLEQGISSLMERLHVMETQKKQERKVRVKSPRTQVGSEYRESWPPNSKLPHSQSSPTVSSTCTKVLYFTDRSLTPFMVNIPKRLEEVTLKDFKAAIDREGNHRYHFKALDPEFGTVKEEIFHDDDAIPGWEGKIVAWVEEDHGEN
Briefly: co-IP; co-transfected HEK293T lysed in NP-40 lysis buffer (50 mM Tris/HCl pH 8.0, 150 mM NaCl, 1% NP-40, protease inhibitors); immunoprecipitated overnight at 4 °C with antibodies against Dvl2, VEGFR2 or DIXDC1, protein G agarose; western blot. A general note: In western blotting, separated proteins are transferred to a membrane and probed.

Consider “Vascular endothelial growth factor receptor 2 (VEGFR2), transfected (from UniProt P35968 20-1356)”, for which the binding entry was “no binding”.
